Data from publication PMC4156046.
Results are given in words; binding and its absence hold for the method and conditions named. In cells and extracts the contact can be indirect. Some results given as binding are weak or reduced against the parent protein; the word gives no strength.

Amino acid sequences for entries named in this document (tags omitted).
UniProt P63045: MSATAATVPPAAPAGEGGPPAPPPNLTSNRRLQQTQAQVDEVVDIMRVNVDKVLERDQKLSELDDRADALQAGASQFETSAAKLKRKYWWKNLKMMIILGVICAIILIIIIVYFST
UniProt Q9JHW5: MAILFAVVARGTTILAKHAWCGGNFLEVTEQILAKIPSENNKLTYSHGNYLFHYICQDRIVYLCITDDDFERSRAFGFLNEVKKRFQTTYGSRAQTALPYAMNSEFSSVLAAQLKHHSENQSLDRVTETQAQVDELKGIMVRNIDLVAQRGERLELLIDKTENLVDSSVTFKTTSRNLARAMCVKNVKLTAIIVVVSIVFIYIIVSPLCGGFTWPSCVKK

Legend:
[1] = target: T1, Na+/K+/2Cl- co-transporter NKCC2 (rat (endogenous in thick ascending limbs)) (UniProt P55016); test: co-IP; 200 ug rat TAL lysate; NKCC2 precipitated with 5 ug rabbit anti-NKCC2 IgG overnight at 4 C, protein G/protein A agarose; buffer 100 mM NaCl, 50 mM HEPES pH 7.5, 5 mM EDTA, 1% Triton X-100, 1% CHAPS; washes incl. 500 mM sodium; blots for VAMP2, VAMP7, VAMP8; also done on TALs treated with vehicle or the PKA agonist N6-benzoyl-cAMP (1 mM) + IBMX for 30 min
T1 sequence: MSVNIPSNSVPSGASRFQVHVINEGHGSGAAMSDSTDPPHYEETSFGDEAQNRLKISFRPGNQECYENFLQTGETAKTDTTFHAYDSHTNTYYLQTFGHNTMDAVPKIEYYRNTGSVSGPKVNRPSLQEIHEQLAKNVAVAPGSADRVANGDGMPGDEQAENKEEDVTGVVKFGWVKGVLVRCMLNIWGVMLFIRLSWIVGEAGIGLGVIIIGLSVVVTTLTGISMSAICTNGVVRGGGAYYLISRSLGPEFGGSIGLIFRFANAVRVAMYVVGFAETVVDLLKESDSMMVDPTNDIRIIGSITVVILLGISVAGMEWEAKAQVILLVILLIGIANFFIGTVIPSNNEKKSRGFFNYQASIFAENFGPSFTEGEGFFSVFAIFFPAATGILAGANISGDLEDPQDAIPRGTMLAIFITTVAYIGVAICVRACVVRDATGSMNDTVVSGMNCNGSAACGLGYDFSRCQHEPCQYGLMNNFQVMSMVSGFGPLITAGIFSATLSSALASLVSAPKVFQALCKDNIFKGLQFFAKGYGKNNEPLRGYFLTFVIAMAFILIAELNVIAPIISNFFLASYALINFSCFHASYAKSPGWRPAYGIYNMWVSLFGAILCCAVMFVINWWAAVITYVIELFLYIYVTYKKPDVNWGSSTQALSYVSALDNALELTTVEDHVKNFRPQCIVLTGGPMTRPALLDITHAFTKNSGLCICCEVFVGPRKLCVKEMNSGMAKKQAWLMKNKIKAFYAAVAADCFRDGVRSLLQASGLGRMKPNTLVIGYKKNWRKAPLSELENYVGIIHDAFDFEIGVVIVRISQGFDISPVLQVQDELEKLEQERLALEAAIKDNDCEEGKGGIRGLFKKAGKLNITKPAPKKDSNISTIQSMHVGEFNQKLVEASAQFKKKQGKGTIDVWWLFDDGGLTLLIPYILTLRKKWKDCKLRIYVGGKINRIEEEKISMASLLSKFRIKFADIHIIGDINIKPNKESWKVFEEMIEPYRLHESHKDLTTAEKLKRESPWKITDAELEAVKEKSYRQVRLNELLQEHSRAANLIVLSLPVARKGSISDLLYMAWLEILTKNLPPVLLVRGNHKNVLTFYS

[2] = target: Vesicle-associated membrane protein 2 (VAMP2) (rat (endogenous in thick ascending limbs)) (UniProt P63045); test: co-IP; reciprocal: 100 ug rat TAL lysate; VAMP2 precipitated with 5 ug anti-VAMP2 antibody; NKCC2 found by Western blot

Molecule: Vesicle-associated membrane protein 2 (VAMP2) (from UniProt P63045 1-116)
- binding [1]: binds

Molecule: Vesicle-associated membrane protein 7 (VAMP7) (from UniProt Q9JHW5 1-220)
- binding [1]: no binding

B1: Na+/K+/2Cl- co-transporter NKCC2 (protein, UniProt P55016 1-1095)
chain: T1 sequence
- binding [2]: binds

B2: Vesicle-associated membrane protein 8 (VAMP8) (protein, UniProt Q9WUF4 1-100)
chain: MEASGSAGNDRVRNLQSEVEGVKNIMTQNVERILARGENLDHLRNKTEDLEATSEHFKTTSQKVARKFWWKNVKMIVIICVIVLIILILIILFATGTIPT
- binding [1]: no binding
